No constants are given. Whether binding was seen depends on the method and setting. Binding calls can cover weak binding; strength is not graded here.
Assays:
Experiment in all cases: cryo-EM structure; 6 µM paclitaxel-stabilised microtubules laid on the grid, then 40 µM KIF20A 1–565 in BRB40 (40 mM PIPES pH 6.8, 1 mM MgCl2, 1 mM EGTA) with 20 µM paclitaxel and apyrase (nucleotide-free), room temperature; two classes (class-1, class-2); both purified
[1] = target: β-tubulin (in the porcine brain microtubule of the cryo-EM structure) (porcine)
[2] = target: microtubules from porcine brain tubulin (cryo-EM preparation) (porcine)
[3] = target: α-tubulin (in the porcine brain microtubule of the cryo-EM structure) (porcine) (UniProt Q2XVP4)

Protein sequences, listed by entry. Tags and fused reporters are not part of them. Lines headed by an entry give the natural chain unless they say otherwise; changes in a name come on top.
UniProt Q2XVP4: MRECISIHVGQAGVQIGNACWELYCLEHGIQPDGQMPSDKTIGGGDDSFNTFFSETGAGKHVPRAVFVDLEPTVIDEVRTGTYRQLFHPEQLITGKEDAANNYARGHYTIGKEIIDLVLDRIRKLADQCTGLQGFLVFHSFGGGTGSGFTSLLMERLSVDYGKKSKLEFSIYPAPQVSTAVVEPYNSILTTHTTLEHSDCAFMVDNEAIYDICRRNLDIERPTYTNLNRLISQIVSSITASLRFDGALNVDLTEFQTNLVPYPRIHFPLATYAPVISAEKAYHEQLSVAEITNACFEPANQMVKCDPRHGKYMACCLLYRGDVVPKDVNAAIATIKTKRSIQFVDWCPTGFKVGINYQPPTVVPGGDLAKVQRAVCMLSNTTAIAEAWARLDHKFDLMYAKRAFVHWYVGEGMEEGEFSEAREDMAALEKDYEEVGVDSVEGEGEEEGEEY

Measured: binding

B1: KIF20A 1–565 (full-length functional motor domain) (domain or fragment, UniProt P97329 1-565)
chain: MSHRILSPPAGLLSDEDVVDSPILESTAADLRSVVRKDLLSDCSVISASLEDKQALLEDTSEKVKVYLRIRPFLTSELDRQEDQGCVCIENTETLVLQAPKDSFALKSNERGVGQATHKFTFSQIFGPEVGQVAFFNLTMKEMVKDVLKGQNWLIYTYGVTNSGKTYTIQGTSKDAGILPQSLALIFNSLQGQLHPTPDLKPLLSNEVIWLDSKQIRQEEMKKLSLLIGGLQEEELSTSVKKRVHTESRIGASNSFDSGVAGLSSTSQFTSSSQLDETSQLWAQPDTVPVSVPADIRFSVWISFFEIYNELLYDLLEPPSHQHKRQTLRLCEDQNGNPYVKDLNWIHVRDVEEAWKLLKVGRKNQSFASTHMNQQSSRSHSIFSIRILHLQGEGDIVPKISELSLCDLAGSERCKHQKSGERLKEAGNINTSLHTLGRCIAALRQNQQNRSKQNLIPFRDSKLTRVFQGFFTGRGRSCMIVNVNPCASTYDETLHAAKFSALASQLVHAPPVHLGIPSLHSFIKKHSPQVGPGLEKEDKADSDLEDSPEDEADVSVYGKEELLQV
binds: [1] | [2] | [3]

— paper PMC10508983, “Nucleotide-free structures of KIF20A illuminate atypical mechanochemistry in this kinesin-6” (Open Biology, 2023)
